Results are given in words; binding and its absence hold for the method and conditions named.
Biological target: GST-E7 fusion protein (HPV16 E7) (HPV16) (UniProt P03129)
Experiment: pull-down; direct binding assay: soluble, purified p14ARF incubated with GST-E7 or GST alone immobilized on glutathione resin; western blot for p14ARF; both purified

Chains of the proteins cited; added tags and fusions are not shown.
UniProt P03129: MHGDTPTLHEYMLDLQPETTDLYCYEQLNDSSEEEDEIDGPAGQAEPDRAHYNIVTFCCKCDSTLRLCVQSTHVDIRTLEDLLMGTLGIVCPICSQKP
UniProt Q8N726: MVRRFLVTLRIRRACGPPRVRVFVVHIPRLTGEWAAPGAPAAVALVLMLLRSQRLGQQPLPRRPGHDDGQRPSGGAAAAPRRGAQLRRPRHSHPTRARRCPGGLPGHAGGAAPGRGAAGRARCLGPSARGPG

“Soluble, purified p14^ARF (from bacteria) (from UniProt Q8N726 1-132)” was tested, and the binding was “no binding”.

— article PMC4010441
